Measured data: PubChem BioAssay AID602196 (INSERM, 2012)

Aim: 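Modifiers of cisplatin sensitivity in A549 cells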
Cells: human A549 lung cancer cells
Knock-down reagent: siRNA pair against human genes
Duration: 48 h transfection before cisplatin; time from cisplatin to read-out not stated
Challenge: cisplatin at a dose killing half of control-siRNA cells; exact dose and duration not given
Detection: 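Shift in cisplatin death relative to control siRNA, from -50 (all cells die) to +50 (no cells die); siRNAs harmful on their own scored 0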
Direction: two-siRNA summed score (-2 to +2): higher = both siRNAs protect from cisplatin killing; -2 means both sensitise; mean protection from cisplatin (shift in death) and protection from cisplatin (shift in death), siRNA C: higher = protection from cisplatin killing
Call rule: 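Each siRNA scores 0 if harmful alone by LDH or WST-1, otherwise +1 if it reduces and -1 if it increases cisplatin killing; a gene is active when both siRNAs agree (sum +2 or -2)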
Calls: active = both siRNAs shift cisplatin killing the same way; inactive = no consistent shift, or siRNA harmful alone
Here is one part, drawn at random, of about 23,000 deposited reagents. 455 of them (2%) count as active. 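Active includes both protection and sensitisation; some change values fall well beyond the stated -50 to +50 range.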 Entries without a mark were called inactive. The numbers tell different reagents against one gene apart. Further read-outs or replicates are left out here. Not stated in the record: the amount of reagent.

gene	reagent no.	two-siRNA summed score (-2 to +2)	mean protection from cisplatin (shift in death) (%)	protection from cisplatin (shift in death), siRNA C (%)
SMYD4	1	0	-7.4	-3.4
IRF9	1	0	-3.6	8.8
FANCG	1	1	17.6	8
TMEM222	1	0	3.3	4.9
RAB4B	1	-1	-21.4	-14.7
ATMIN	1	0	9.5	15.7
PAPOLA	1	0	11.2	27.8
LEP	1	0	2.5	3.2
OR4X2	1	0	11.1	9
OR51M1	1	1	15.7	17.3
GLIPR2	1	0	9.6	10.9
NGLY1	1	0	4	5.3
MAGI1	1	0	-2.1	24.3
PCBP1	1	-1	-10.1	-1.7
SH3GL1	1	0	1.4	-6.4
LOC390625	1	1	16.3	26.5
CSDC2	1	0	-3	-6.6
PA2G4	1	0	7.2	1.8
STAG2	1	0	6.5	-0.6
NCAN	1	0	-5.8	-6.6

Only “mean protection from cisplatin (shift in death) (%)”, for 5 of the entries above:
PAPOLA = 11.2
LEP = 2.5
OR4X2 = 11.1
OR51M1 = 15.7
GLIPR2 = 9.6

Additional records follow.
gene	reagent no.	two-siRNA summed score (-2 to +2)	mean protection from cisplatin (shift in death) (%)	protection from cisplatin (shift in death), siRNA C (%)
PTPRT	1	0	4.5	8
SCRN3	1	0	1.9	1
TMEM179	1	0	0.5	-8.3
RPA4	1	-1	-3.4	12.8
CA10	1	0	12.2	14.5
FBXL8	1	-1	-26.1	-27.2
LOC441157	1	0	10.6	7.3
LOC400606	1	0	-9.3	-14.9
MSRB2	1	1	24.7	8.9
FAM110D	1	0	9.6	-14.1
DUSP5	1	1	4.9	1.6
WASF1	1	-1	-12	-35.7
IL36A	1	0	-18.8	-20.3
CSMD3	1	0	5.8	15.8
LEPROT	1	-1	-0.3	16.2
DDI2	1	0	5.6	7.8
DDI2	2	1	11.3	1.7
LOC283604	1	1	0.6	-9.1
FLJ38144	1	0	8.4	8.4
SPON2	1	2 (active)	17.9	17.1
CCL28	1	-1	-7	10.7
FASN	1	0	-4.2	-3.1
IMP3	1	0	3.9	3.1
LOC402094	1	0	6.3	27.6
MRPL10	1	1	3.3	-7.3
TCEAL5	1	0	3.7	-6.5
KDM4A	1	0	-9.9	-11.4
LOC342357	1	0	17.4	23.6
POLR2J2	1	0	6.5	4.7
CXADR	1	-1	-19.2	-16.3
STX1B	1	0	11.8	12.3
LOC388177	1	1	10.1	7.2
VWCE	1	0	4.5	-8.5
CCNA1	1	0	-6.8	-9.8
ZNF527	1	0	5.4	-5
PPIAP87	1	0	3.3	-2.7
KCNJ5	1	0	6.4	22
